Several values for one entry are separate records, joined by “and”; a condition that tells them apart may be missing. Equal values may be shown once. The whole screen tested about 340,000 compounds, of which about 6,200 (1.8%) were called active. Inconclusive means that the source gave no clear call. Such entries were picked first, then a sample of the others. Calls come from the whole dose curve; as a rule, active = well fitted activation curve with a large enough effect; inconclusive = small, poorly fitted or top-dose-only effect; inactive = no such curve, though single readings can be large or run the other way. A potency beside an inconclusive call is a rough fit, not a confirmed value.
experiment: A quantitative high throughput screen for small molecules that induce DNA re-replication in SW480 colon adenocarcinoma cells.; note: nearly all actives have a fitted effect of over 55% in size; for re-replication activation: % of control where 0% means no effect; settings: Hoechst DNA content imaging, 48 h; re-replication activation: at 46.1 µM (top of the series) unless noted
Procedure, shortened: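 DNA re-replication was detected as more nuclei of elevated Hoechst intensity after 48 hr exposure to compound (23 nL pinned per well of 250 cells).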
Potency is the fitted concentration of half-maximal effect.

**Q.** Which Potency does the source give for `CCCCNC(=O)c1nn2c(C(F)(F)F)cc(-c3ccc(OC)cc3)nc2c1Br` here?
**A.** inconclusive: 29.1 µM [activator, single point]

**Q.** For `COc1ccc(OCCCC(=O)NC(C)c2ccccc2)cc1` (centres undefined), which Potency is on record?
**A.** inconclusive: 2.06 µM [activator, full curve, poor fit]

**Q.** With `COCCn1c(SCC(=O)N2CCCCCC2)nnc1-c1ccco1` as the compound, how does the “re-replication activation” value read?
**A.** inactive: -7.63%

**Q.** For `COc1ccc(N2CCN(CCNC(=O)Nc3ccc([N+](=O)[O-])cc3OC)CC2)cc1`, which Potency is on record?
**A.** inconclusive: 16.4 µM [activator, partial curve, poor fit]

**Q.** Which “re-replication activation” value does the source give for `CC(=O)Nc1ccc2c(c1)C(=O)c1ccccc1C2=O` here?
**A.** inactive: 7.31%

**Q.** With `Cc1ccc(S(=O)(=O)CC(=O)c2ccccc2[N+](=O)[O-])cc1` as the compound, how does the “re-replication activation” value read?
**A.** inactive: 4.56%

**Q.** For `CCCNC1=CC(=O)CC(C)(C)C1`, which Potency is on record?
**A.** inconclusive: 0.13 µM [activator, full curve, poor fit]

**Q.** For `COc1ccc(CN2CCCN(S(=O)(=O)c3ccc(Br)cc3)CC2)cc1`, which Potency is on record?
**A.** inconclusive: 23.1 µM [activator, single point]

**Q.** With `CC(C)(C)OC(=O)C[C@@H]1C/C=C\C[C@@H](CC(=O)N[C@H](CO)Cc2ccccc2)C(=O)NC[C@H](c2ccccc2)OC1=O` as the compound, how does the “re-replication activation” value read?
**A.** inactive: -3.56%

**Q.** For `O=C(CCc1nc2sc3c(c2c(=O)[nH]1)CCCC3)Nc1ccccc1Cl`, which Potency is on record?
**A.** inconclusive: 18.4 µM [activator, single point]

**Q.** With `Cc1cc(C2CCCCC2)n(O)c(=O)c1` as the compound, how does the Potency read?
**A.** inconclusive: 29.1 µM [activator, single point]

**Q.** With `Cc1cccc(NC(=O)CNC(=O)CSc2nnc(C(F)(F)F)n2C)c1C` as the compound, how does the Potency read?
**A.** inconclusive: 29.1 µM [activator, single point]

**Q.** For `CCOc1ccc(CNCc2ccc(C(=O)O)cc2)cc1OC`, which Potency is on record?
**A.** inconclusive: 29.1 µM [activator, partial curve, poor fit]

**Q.** For `O=C(NNC(=O)c1cc(-c2ccc(Cl)cc2Cl)nc2ccccc12)Nc1ccccc1`, which Potency is on record?
**A.** inconclusive: 29.1 µM [activator, single point]

**Q.** Which Potency does the source give for `COc1ccc(NC(=O)CN(c2ccc(OC)c(Cl)c2)S(=O)(=O)c2ccccc2)c(OC)c1` here?
**A.** inconclusive: 0.116 µM [activator, full curve, poor fit]

**Q.** For `COc1ccc(Cl)cc1C1=CC(=O)C[C@H](c2ccc(F)cc2)C1`, which re-replication activation is on record?
**A.** inactive: -7.32% [at 9.22 µM]

**Q.** Which Potency does the source give for `COc1ccc(-c2cc(C(=O)NNC(=S)NC(=O)c3c(-c4ccccc4)noc3C)[nH]n2)cc1` here?
**A.** inconclusive: 29.1 µM [activator, single point]

**Q.** Which “re-replication activation” value does the source give for `CC12CC3CC(C)(C1)CC(C(=O)N1CCN(C(=O)C4CCCO4)CC1)(C3)C2` (centres undefined) here?
**A.** inactive: -3%

**Q.** With `CC1=C(C(=O)OC(C)C)C(c2cccc([N+](=O)[O-])c2)C(C(=O)OC2CN(C(c3ccccc3)c3ccccc3)C2)=C(N)N1` (centres undefined) as the compound, how does the Potency read?
**A.** inconclusive: 33.5 µM [activator, partial curve, poor fit]

**Q.** For `CCCCn1c(N)c(N(CC(C)C)C(=O)c2cccs2)c(=O)[nH]c1=O`, which “re-replication activation” value is on record?
**A.** inactive: -3.07%

**Q.** Which “re-replication activation” value does the source give for `CCOc1ccccc1NC(=S)NNS(=O)(=O)c1c(C)cc(C)cc1C` here?
**A.** inactive: 0.605%

**Q.** With `Cc1cccc(Nc2nc(N)nc(CSc3nccc(C)n3)n2)c1` as the compound, how does the “re-replication activation” value read?
**A.** inactive: 2.81%

**Q.** For `COc1ccc(-c2cc(-c3nnc(COC(=O)C4CC4C)o3)c3ccccc3n2)cc1OC` (centres undefined), which Potency is on record?
**A.** active: 16.4 µM

**Q.** For `N=c1c2c(-c3ccccc3)c(-c3ccccc3)n(Cc3ccco3)c2ncn1CCCn1ccnc1`, which Potency is on record?
**A.** inconclusive: 2.59 µM [activator, partial curve, poor fit]

**Q.** For `C=CCNc1nnc(SC2CC(=O)N(c3ccc(OCCC)cc3)C2=O)s1` (centres undefined), which Potency is on record?
**A.** inconclusive: 29.1 µM [activator, single point]

**Q.** For `O=C(Nc1nc2ccccc2s1)c1ccc(F)cc1`, which “re-replication activation” value is on record?
**A.** inactive: -4.98%

**Q.** Which Potency does the source give for `Oc1ccc(/C=N/Nc2ccc(C(F)(F)F)cn2)cc1` here?
**A.** active: 9.2 µM

**Q.** For `CCN(Cc1ccncc1)C(=O)c1ccccc1NS(=O)(=O)c1ccc(F)cc1`, which “re-replication activation” value is on record?
**A.** inactive: -7.71%

**Q.** With `O=C(Nc1ccc2c(c1)OCO2)c1cc2ncc(Br)cn2n1` as the compound, how does the “re-replication activation” value read?
**A.** inactive: 2.04%

**Q.** Which Potency does the source give for `Oc1ccc(Cl)cc1C1=NNC(c2ccc(Cl)cc2)C1` (centres undefined) here?
**A.** inconclusive: 35.5 µM [activator, single point]

**Q.** Which “re-replication activation” value does the source give for `CCOc1cc(C(=S)N2CCCC2)ccc1OCc1ccccc1` here?
**A.** inactive: 0.458%

**Q.** Which Potency does the source give for `N#Cc1nc(-c2cccc3ccccc23)oc1NCCN1CCOCC1` here?
**A.** inconclusive: 25.9 µM [activator, single point]

**Q.** For `O=C(NC(NC(=S)Nc1c(Cl)cc(Cl)cc1Cl)C(Cl)(Cl)Cl)OCc1ccccc1` (centres undefined), which Potency is on record?
**A.** inconclusive: 18.4 µM [activator, partial curve, poor fit]

**Q.** For `Fc1ccc(CNc2nc(-c3cccnc3)nc3ccccc23)cc1`, which Potency is on record?
**A.** inconclusive: 29.1 µM [activator, single point]

**Q.** With `Cc1n[nH]c(C)c1S(=O)(=O)N1CCCC(C(=O)NC2CCCCC2)C1` (centres undefined) as the compound, how does the “re-replication activation” value read?
**A.** inactive: 9.71%

**Q.** For `S=C1SCN(Cc2ccccc2)CN1Cc1ccccc1`, which Potency is on record?
**A.** inconclusive: 13.3 µM [activator, full curve] and inconclusive: 20.6 µM [activator, single point]

**Q.** For `CCNC(=O)N1CCCC(C(=O)c2ccc(OC)c(OC)c2)C1` (centres undefined), which Potency is on record?
**A.** inconclusive: 0.517 µM [activator, partial curve, poor fit]

**Q.** For `CC1=Nn2c(nnc2-c2ccccc2)SC1`, which “re-replication activation” value is on record?
**A.** inactive: 2.75%

**Q.** Which Potency does the source give for `COc1ccc(/C=C/c2cc(-c3ccc(C)cc3)o[n+]2C)cc1` here?
**A.** inconclusive: 5.8 µM [activator, partial curve, poor fit]

**Q.** For `O=c1c2c3c(sc2n(CCN2CCCCC2)c(=O)n1Cc1ccco1)CCCCC3`, which Potency is on record?
**A.** inconclusive: 22.4 µM [activator, single point]

**Q.** With `COc1ccc(CN(C)C(=O)c2ccc(OCC(=O)Nc3cccc(C(F)(F)F)c3)c(OC)c2)c(OC)c1` as the compound, how does the Potency read?
**A.** inconclusive: 29.1 µM [activator, partial curve, poor fit]

**Q.** With `CCn1c2ccccc2c2cc(CC(N)=O)ccc21` as the compound, how does the Potency read?
**A.** inconclusive: 14.6 µM [activator, single point]

**Q.** For `CCC(Oc1ccc(Br)cc1)C(=O)N1CCN(c2ncccn2)CC1` (centres undefined), which “re-replication activation” value is on record?
**A.** inactive: 4.13%

**Q.** With `Cc1cc(Nc2ccc(Cl)cc2)nc(-c2ccccc2O)n1` as the compound, how does the Potency read?
**A.** inconclusive: 3.66 µM [activator, full curve, poor fit]

Source: PubChem BioAssay AID624297 (National Center for Advancing Translational Sciences (NCATS), 2012)
